Experimental data reported in US20260167674A1, “ACE2 […] SEQUENCES” (priority 2023, published 2026).
At least one peptide structure holds a part that was inferred or is arguable (an end, a ring closure or a residue). No end group written: not given here.

Molecular target: SARS-COV-2 RBD (Severe acute respiratory syndrome coronavirus 2, UniProt P0DTC2)
Type: binding

QEQAQTYLDGYNKTYQDLVYKDNLAQWTLNT [peptide2]
binding affinity, times higher than reference human ACE2 protein (peptide1): 89-107 times
